Laboratory results published in publication doi:10.1101/2022.09.23.508845.
These are yes or no findings as the source states them, for the method shown. Binding seen in cells or lysates may run through a third protein. Some entries that bind do so weakly or less than the wild type. Tags and fused reporters may be left off the sequences shown.

Protein sequences, listed by entry. Tags and fused reporters are not part of them.
UniProt Q13535: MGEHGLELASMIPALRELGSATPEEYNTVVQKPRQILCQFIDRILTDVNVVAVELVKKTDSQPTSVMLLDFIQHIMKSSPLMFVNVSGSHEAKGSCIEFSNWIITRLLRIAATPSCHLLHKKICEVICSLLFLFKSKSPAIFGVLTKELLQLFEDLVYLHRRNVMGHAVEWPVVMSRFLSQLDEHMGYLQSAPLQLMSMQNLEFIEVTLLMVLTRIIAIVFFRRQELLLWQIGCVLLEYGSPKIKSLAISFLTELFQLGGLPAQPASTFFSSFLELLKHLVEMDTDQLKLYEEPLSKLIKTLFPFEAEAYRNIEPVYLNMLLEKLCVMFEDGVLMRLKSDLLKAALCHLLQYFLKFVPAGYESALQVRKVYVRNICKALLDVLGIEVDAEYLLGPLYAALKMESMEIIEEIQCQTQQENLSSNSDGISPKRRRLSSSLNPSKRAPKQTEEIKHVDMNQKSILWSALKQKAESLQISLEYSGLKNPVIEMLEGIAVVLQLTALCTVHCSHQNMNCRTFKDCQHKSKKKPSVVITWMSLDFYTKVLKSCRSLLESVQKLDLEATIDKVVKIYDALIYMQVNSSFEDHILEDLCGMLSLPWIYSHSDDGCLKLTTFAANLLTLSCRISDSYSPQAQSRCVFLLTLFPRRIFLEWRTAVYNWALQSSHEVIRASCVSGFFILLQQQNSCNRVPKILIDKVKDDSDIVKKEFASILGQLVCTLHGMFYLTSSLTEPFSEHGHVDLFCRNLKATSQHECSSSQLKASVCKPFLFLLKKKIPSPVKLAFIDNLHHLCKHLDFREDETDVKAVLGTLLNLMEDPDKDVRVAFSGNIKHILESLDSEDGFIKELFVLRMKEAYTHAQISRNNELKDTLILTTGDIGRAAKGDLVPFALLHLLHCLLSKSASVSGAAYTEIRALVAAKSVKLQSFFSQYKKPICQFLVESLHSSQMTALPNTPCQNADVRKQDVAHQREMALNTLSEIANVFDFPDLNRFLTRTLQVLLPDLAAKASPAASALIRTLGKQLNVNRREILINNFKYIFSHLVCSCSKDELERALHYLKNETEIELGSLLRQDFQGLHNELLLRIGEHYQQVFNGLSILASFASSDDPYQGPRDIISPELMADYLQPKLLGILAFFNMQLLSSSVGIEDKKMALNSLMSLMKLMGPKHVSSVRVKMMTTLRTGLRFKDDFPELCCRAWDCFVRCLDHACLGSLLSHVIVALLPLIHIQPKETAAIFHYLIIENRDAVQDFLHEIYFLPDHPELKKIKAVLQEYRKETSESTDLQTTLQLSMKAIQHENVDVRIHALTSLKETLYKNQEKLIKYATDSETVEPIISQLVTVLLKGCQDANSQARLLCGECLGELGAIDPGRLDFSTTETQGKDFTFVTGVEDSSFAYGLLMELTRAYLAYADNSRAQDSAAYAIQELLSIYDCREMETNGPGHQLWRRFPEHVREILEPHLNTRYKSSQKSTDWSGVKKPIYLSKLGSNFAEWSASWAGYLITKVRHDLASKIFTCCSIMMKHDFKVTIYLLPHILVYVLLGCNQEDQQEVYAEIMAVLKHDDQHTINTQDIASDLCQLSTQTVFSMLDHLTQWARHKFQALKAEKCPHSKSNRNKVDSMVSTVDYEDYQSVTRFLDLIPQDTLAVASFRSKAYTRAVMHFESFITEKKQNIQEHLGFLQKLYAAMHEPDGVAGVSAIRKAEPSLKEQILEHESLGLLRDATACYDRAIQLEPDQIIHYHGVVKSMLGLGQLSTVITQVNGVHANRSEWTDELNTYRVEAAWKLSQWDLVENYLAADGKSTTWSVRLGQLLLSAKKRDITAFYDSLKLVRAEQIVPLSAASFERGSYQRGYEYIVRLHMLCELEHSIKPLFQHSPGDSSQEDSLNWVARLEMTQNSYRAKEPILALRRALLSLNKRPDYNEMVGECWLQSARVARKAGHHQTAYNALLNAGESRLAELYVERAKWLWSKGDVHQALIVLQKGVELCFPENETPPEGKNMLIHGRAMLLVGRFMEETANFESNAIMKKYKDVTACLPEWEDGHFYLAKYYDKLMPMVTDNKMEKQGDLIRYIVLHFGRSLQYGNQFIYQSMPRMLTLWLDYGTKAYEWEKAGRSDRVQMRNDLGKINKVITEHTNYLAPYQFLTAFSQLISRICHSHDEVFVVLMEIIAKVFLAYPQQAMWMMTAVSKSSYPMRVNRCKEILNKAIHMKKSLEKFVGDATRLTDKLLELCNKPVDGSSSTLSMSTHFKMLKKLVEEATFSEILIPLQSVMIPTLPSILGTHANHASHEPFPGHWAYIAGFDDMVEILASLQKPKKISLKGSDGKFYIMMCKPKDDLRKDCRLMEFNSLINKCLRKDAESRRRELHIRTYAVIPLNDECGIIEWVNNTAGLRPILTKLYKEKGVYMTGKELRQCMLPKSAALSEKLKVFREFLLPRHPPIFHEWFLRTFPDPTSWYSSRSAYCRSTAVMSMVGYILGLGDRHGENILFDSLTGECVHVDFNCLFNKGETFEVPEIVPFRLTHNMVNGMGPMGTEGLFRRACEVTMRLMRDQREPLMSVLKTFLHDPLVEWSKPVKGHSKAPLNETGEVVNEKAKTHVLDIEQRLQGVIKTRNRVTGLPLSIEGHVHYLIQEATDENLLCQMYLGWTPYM
UniProt Q9Y4A5: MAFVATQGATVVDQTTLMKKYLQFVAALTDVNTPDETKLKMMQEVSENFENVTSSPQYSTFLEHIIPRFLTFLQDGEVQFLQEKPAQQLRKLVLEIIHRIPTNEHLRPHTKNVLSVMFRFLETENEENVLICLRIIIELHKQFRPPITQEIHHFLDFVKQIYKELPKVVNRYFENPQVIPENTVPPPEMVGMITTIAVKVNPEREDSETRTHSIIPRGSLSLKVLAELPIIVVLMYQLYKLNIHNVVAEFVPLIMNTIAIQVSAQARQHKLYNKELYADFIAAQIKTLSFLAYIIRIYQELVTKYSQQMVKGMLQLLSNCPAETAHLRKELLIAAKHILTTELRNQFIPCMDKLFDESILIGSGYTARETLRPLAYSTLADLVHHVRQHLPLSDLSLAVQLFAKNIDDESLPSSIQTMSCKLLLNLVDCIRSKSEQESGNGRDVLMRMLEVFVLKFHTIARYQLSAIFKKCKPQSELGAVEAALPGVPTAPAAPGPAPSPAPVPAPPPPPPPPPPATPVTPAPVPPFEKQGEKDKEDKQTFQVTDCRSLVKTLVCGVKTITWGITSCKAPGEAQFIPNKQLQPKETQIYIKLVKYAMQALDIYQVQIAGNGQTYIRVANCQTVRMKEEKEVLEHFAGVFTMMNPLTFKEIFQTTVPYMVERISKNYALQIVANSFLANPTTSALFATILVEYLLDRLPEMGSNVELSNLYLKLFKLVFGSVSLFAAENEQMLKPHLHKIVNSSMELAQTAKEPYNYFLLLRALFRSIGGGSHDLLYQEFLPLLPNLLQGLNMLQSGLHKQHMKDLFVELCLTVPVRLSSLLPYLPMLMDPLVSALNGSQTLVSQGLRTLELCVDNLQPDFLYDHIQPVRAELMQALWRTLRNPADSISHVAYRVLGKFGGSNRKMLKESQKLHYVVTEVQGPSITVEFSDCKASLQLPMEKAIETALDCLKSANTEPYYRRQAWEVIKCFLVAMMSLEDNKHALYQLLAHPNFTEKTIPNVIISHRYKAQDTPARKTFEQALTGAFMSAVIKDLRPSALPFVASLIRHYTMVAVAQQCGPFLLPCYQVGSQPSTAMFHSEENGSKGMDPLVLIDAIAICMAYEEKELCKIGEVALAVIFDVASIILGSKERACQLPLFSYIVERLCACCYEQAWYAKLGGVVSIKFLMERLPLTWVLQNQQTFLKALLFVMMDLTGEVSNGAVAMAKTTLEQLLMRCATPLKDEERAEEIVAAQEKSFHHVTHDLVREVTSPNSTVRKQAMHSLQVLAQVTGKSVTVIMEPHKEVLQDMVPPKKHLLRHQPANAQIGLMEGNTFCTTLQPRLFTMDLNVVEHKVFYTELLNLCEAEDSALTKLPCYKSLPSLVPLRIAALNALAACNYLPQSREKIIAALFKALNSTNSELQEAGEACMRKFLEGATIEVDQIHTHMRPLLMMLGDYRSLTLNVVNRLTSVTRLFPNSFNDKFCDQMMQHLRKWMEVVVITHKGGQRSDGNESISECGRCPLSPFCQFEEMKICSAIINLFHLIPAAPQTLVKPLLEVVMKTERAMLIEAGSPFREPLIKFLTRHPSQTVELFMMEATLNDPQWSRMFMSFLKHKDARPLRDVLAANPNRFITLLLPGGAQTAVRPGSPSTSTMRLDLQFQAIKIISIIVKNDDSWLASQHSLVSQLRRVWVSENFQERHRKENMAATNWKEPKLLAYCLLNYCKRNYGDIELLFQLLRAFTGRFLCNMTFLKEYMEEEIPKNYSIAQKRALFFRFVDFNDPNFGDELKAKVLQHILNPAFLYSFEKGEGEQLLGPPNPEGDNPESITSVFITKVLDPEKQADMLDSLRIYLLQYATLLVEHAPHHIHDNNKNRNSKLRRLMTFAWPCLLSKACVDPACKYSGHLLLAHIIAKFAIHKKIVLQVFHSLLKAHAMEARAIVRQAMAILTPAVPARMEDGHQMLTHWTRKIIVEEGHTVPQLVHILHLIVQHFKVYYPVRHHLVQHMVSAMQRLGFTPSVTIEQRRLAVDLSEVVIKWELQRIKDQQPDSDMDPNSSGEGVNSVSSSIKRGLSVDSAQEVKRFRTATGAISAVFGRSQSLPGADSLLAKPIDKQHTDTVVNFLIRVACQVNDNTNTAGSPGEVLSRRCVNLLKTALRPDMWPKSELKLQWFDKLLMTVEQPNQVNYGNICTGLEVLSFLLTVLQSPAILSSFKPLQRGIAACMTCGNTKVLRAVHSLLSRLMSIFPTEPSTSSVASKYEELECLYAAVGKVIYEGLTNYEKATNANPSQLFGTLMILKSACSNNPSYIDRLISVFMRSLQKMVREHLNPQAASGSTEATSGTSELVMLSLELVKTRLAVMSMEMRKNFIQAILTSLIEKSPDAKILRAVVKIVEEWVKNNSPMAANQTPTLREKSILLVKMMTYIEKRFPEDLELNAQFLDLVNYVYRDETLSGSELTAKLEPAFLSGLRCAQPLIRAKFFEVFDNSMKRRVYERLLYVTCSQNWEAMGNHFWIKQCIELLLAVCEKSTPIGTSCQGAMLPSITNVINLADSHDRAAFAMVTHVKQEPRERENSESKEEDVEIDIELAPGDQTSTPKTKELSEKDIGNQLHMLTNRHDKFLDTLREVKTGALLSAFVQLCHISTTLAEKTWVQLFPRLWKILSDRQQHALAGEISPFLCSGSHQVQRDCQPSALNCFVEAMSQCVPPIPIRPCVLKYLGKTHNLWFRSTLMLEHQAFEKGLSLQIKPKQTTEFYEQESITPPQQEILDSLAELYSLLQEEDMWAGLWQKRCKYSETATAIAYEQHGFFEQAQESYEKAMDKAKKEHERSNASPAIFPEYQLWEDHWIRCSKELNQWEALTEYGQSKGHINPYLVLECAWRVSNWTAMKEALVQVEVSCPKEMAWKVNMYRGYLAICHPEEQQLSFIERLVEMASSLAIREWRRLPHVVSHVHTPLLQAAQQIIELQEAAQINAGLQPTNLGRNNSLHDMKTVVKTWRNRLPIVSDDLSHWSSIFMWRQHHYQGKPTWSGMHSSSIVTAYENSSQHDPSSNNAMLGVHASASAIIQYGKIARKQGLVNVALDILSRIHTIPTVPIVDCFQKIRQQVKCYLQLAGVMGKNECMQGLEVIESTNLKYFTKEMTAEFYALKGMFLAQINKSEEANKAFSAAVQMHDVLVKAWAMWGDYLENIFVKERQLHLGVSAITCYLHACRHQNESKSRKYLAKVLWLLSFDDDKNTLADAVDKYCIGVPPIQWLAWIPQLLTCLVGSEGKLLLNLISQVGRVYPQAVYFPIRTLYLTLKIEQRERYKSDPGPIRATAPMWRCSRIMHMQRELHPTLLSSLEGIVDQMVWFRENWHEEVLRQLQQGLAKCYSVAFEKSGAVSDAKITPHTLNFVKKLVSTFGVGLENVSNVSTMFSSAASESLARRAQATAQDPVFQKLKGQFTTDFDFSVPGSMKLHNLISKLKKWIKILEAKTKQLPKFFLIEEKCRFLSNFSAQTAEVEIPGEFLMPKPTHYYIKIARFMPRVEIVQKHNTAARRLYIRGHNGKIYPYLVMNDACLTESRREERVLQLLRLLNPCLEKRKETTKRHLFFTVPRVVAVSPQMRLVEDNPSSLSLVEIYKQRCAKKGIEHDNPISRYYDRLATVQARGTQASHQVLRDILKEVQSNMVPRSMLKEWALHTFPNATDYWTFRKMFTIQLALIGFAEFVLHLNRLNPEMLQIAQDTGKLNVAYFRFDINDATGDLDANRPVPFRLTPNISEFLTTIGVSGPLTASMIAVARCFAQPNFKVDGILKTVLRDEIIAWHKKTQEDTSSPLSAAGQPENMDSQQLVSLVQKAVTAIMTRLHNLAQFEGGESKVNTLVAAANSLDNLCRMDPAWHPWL

T1: 3xFlag-GNB1L (human) (UniProt Q9BYB4)
T1 sequence: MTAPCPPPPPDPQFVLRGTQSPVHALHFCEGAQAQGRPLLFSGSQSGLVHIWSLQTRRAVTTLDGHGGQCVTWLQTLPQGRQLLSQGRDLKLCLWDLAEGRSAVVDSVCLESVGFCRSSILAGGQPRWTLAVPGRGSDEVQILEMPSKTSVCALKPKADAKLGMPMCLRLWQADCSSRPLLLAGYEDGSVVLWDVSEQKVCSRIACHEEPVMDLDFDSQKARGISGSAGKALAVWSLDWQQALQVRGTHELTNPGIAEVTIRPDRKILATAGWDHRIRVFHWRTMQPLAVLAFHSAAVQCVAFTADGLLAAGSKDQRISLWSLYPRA

B1: TTI2 (protein, UniProt Q6NXR4 1-508)
chain: MELDSALEAPSQEDSNLSEELSHSAFGQAFSKILHCLARPEARRGNVKDAVLKDLGDLIEATEFDRLFEGTGARLRGMPETLGQVAKALEKYAAPSKEEEGGGDGHSEAAEKAAQVGLLFLKLLGKVETAKNSLVGPAWQTGLHHLAGPVYIFAITHSLEQPWTTPRSREVAREVLTSLLQVTECGSVAGFLHGENEDEKGRLSVILGLLKPDLYKESWKNNPAIKHVFSWTLQQVTRPWLSQHLERVLPASLVISDDYQTENKILGVHCLHHIVLNVPAADLLQYNRAQVLYHAISNHLYTPEHHLIQAVLLCLLDLFPILEKTLHWKGDGARPTTHCDEVLRLILTHMEPEHRLLLRRTYARNLPAFVNRLGILTVRHLKRLERVIIGYLEVYDGPEEEARLKILETLKLLMQHTWPRVSCRLVVLLKALLKLICDVARDPNLTPESVKSALLQEATDCLILLDRCSQGRVKGLLAKIPQSCEDRKVVNYIRKVQQVSEGAPYNGT

Target: T1, 3xFlag-GNB1L (human)
Test: co-IP

Molecule	binding
ATR (from UniProt Q13535 1-2644)	binds
DNA-PKcs (from UniProt P78527 1-4128)	binds
TRRAP (from UniProt Q9Y4A5 1-3859)	binds
TTI1 (from UniProt O43156 1-1089)	binds
B1	binds
